At least one compound was matched to its structure with a doubt left.
How the values were obtained:
ALDH [1] = assay: SIFT-MS headspace acetaldehyde (AA) in hepG2 cultures with ALDH inhibitors; type: cell-based, human; conditions: 20 μM DSF, 1(10^4) to 1(10^7) hepG2 cells
Method: (§1) Human mesenchymal stem cells, hMSCs, are a primary cell type, and were isolated from a bone marrow aspirate sample (person; Lonza, US) using the plastic-adherence methodology and the hepG2 cells are of a human hepatocellular carcinoma cell line (Eton Bioscience, US), a cell line commonly used for the study of liver function. In both cases, the cells were cultured to confluence in Dulbecco's modified Eagle's medium (DMEM; Lonza, UK), supplemented with 10% v/v foetal bovine serum (FBS; Lonza, UK), 50 U mL^−1 penicillin-streptomycin (Lonza, UK) and 2 mM L-glutamine (Lonza, UK). The hMSCs additionally contained 1% v/v non-essential amino acids. The hMSCs were not cultured beyond passage number 4, whereas the well-differentiated hepG2 cells were analysed before passage number 20.
(§2) The inhibitor solutions were then added to volumes of medium so that the final DMSO concentration was always 0.1% v/v (or ˜14 500 μM). […] On the evening prior to the analysis, the cells were removed from the tissue culture flasks using trypsin, counted using a haemocytometer, and suspended in fresh DMEM media containing the ALDH inhibitor where appropriate, inside 150 mL glass bottles. […]
(§3) The methodology of SIFT-MS analyses for the sampling and quantification of compounds in the headspace of liquid samples has been described in detail previously (Refs 21,22,27-32). […]

hepG2 cells = assay: SIFT-MS headspace DMS in hepG2 cultures (DMSO reduction to DMS); type: cell-based, human; conditions: 20 μM DSF, 0.1% v/v DMSO
Method: as §1, §2, §3

ALDH [2] = assay: SIFT-MS headspace AA in hMSC cultures with ALDH inhibitors; type: cell-based, human; conditions: approximately 5(10^6) hMSCs, 24 hours pre-treatment plus 16 hours sealed incubation
Method: as §1, §2, §3

hMSCs = assay: SIFT-MS headspace DMS in hMSC cultures (DMSO reduction to DMS); type: cell-based, human; conditions: approximately 5(10^6) hMSCs, 24 hours pre-treatment plus 16 hours sealed incubation, 0.1% v/v DMSO
Method: as §1, §2, §3

[3] = Maximum concentration of DSF in DMSO solution; type: physicochemical; conditions: solvent DMSO

In the case of `CCN(CC)C(=S)SSC(=S)N(CC)CC` [DSF, disulfiram], the “headspace AA levels versus DMEM medium” value (ALDH [1]) is reported as “no increase in the AA levels occurs”, the DMS production (hepG2 cells) is reported as “no DMS production is observed” and the “effect on ALDH / ability of hMSCs to metabolise AA” value (ALDH [2]) is reported as “little or no effect on the ability of the hMSCs to metabolise AA”. The “effect on DMS production from DMSO” value (hMSCs) was “inhibiting effect on DMS production from DMSO” and the “maximum concentration in a DMSO solution” value [3] was 20 mM.

Source: patent US20160011174A1, “Assay for Determining the Cell Number in Cultured Cells” (KEELE UNIVERSITY, priority 2013, published 2016)
